Tested on: 125 representative kinases
Test: 125 kinase selectivity panel (overall)
Assay type: biochemical
Details: 10 μM; 125 kinases
Experimental: Kinase selectivity was evaluated at Eurofins Pharma Discovery Services using a selection of 125 representative kinases tested at a concentration of 10 μM in duplicate (S3 Table). IC50 values for selected activities were further characterized at 9 duplicate concentrations. DNA-PK activity was determined at the SelectScreen® Biochemical kinase Profiling Service of Thermo Fisher Scientific.

SMILES	number of kinases of the panel with % inhibition > 50
Cn1cc(-c2cccc(-c3nc(C(=O)NC4C5CC6CC4CC(O)(C6)C5)c(N)nc3N)c2)cn1 (centres unmarked) [compound 4]	9
CS(=O)(=O)N1CCN(c2ccc(Nc3ncc(C(N)=O)c(NC4CC4)n3)cc2)CC1 [compound 5]	89
